# Laboratory results: the supplement of paper PMC8728848
# The other results are listed elsewhere or left out.
# Tests used:
# Experiment in all cases: glycan array binding signal (z-score within array); higher = stronger binding
# Details in all cases: glycan notation: IUPAC condensed, linker removed
# [1] = molecular target: Neu5Ac(a2-6)Gal(b1-4)GlcNAc(b1-2)Man(a1-3)[Man(a1-6)]Man(b1-4)GlcNAc(b1-4)GlcNAc
# Procedure, shortened: (§1)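 Glycan array binding is given as a within-array Z-score, which can be read as non-binding when negative. The arrays, 3228 of them, came from the Consortium for Functional Glycomics database and were retained only where the protein sequence was available. Z-scores were averaged across arrays of the same protein sequence at different concentrations or buffers and across linkers.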
# [2] = molecular target: Neu5Ac(a2-6)Gal(b1-4)GlcNAc(b1-2)Man(a1-3)[Neu5Ac(a2-3)Gal(b1-4)GlcNAc(b1-2)Man(a1-6)]Man(b1-4)GlcNAc(b1-4)GlcNAc
# Procedure, shortened: as §1
# [3] = molecular target: Neu5Ac(a2-6)Gal(b1-4)GlcNAc(b1-2)Man(a1-3)[Neu5Ac(a2-6)Gal(b1-4)GlcNAc(b1-2)Man(a1-6)]Man(b1-4)GlcNAc(b1-4)GlcNAc
# Procedure, shortened: as §1
# [4] = molecular target: Neu5Ac(a2-6)Gal(b1-4)GlcNAc(b1-2)Man(a1-3)[Neu5Ac(a2-6)Gal(b1-4)GlcNAc(b1-2)Man(a1-6)]Man(b1-4)GlcNAc(b1-4)[Fuc(a1-6)]GlcNAc
# Procedure, shortened: as §1
# [5] = molecular target: Neu5Ac(a2-6)Gal(b1-4)GlcNAc(b1-2)Man(a1-6)Man(b1-4)GlcNAc(b1-4)GlcNAc
# Procedure, shortened: as §1
# [6] = molecular target: Neu5Ac(a2-6)Gal(b1-4)GlcNAc(b1-2)Man(a1-6)[Gal(b1-4)GlcNAc(b1-2)Man(a1-3)]Man(b1-4)GlcNAc(b1-4)GlcNAc
# Procedure, shortened: as §1
# [7] = molecular target: Neu5Ac(a2-6)Gal(b1-4)GlcNAc(b1-2)Man(a1-6)[GlcNAc(b1-2)Man(a1-3)]Man(b1-4)GlcNAc(b1-4)GlcNAc
# Procedure, shortened: as §1
# [8] = molecular target: Neu5Ac(a2-6)Gal(b1-4)GlcNAc(b1-2)Man(a1-6)[Man(a1-3)]Man(b1-4)GlcNAc(b1-4)GlcNAc
# Procedure, shortened: as §1
# [9] = molecular target: Neu5Ac(a2-6)Gal(b1-4)GlcNAc(b1-2)[Neu5Ac(a2-6)Gal(b1-4)GlcNAc(b1-4)]Man(a1-3)[GlcNAc(b1-4)][Neu5Ac(a2-6)Gal(b1-4)GlcNAc(b1-2)[Neu5Ac(a2-6)Gal(b1-4)GlcNAc(b1-6)]Man(a1-6)]Man(b1-4)GlcNAc(b1-4)GlcNAc
# Procedure, shortened: as §1
# [10] = molecular target: Neu5Ac(a2-6)Gal(b1-4)GlcNAc(b1-2)[Neu5Ac(a2-6)Gal(b1-4)GlcNAc(b1-4)]Man(a1-3)[GlcNAc(b1-4)][Neu5Ac(a2-6)Gal(b1-4)GlcNAc(b1-4)Man(a1-6)]Man(b1-4)GlcNAc(b1-4)GlcNAc
# Procedure, shortened: as §1
# [11] = molecular target: Neu5Ac(a2-6)Gal(b1-4)GlcNAc(b1-2)[Neu5Ac(a2-6)Gal(b1-4)GlcNAc(b1-6)]Man(a1-6)[Neu5Ac(a2-6)Gal(b1-4)GlcNAc(b1-2)Man(a1-3)][GlcNAc(b1-4)]Man(b1-4)GlcNAc(b1-4)GlcNAc
# Procedure, shortened: as §1
# [12] = molecular target: Neu5Ac(a2-6)Gal(b1-4)GlcNAc(b1-3)Gal(b1-3)GlcNAc
# Procedure, shortened: as §1
# [13] = molecular target: Neu5Ac(a2-6)Gal(b1-4)GlcNAc(b1-3)Gal(b1-4)GlcNAc
# Procedure, shortened: as §1
# [14] = molecular target: Neu5Ac(a2-6)Gal(b1-4)GlcNAc(b1-3)Gal(b1-4)GlcNAc(b1-2)Man(a1-3)[Neu5Ac(a2-6)Gal(b1-4)GlcNAc(b1-3)Gal(b1-4)GlcNAc(b1-2)Man(a1-6)]GalNAc
# Procedure, shortened: as §1
# [15] = molecular target: Neu5Ac(a2-6)Gal(b1-4)GlcNAc(b1-3)Gal(b1-4)GlcNAc(b1-3)Gal(b1-4)GlcNAc
# Procedure, shortened: as §1
# [16] = molecular target: Neu5Ac(a2-6)Gal(b1-4)GlcNAc(b1-3)Gal(b1-4)GlcNAc(b1-3)Gal(b1-4)GlcNAc(b1-2)Man(a1-3)[Neu5Ac(a2-6)Gal(b1-4)GlcNAc(b1-3)Gal(b1-4)GlcNAc(b1-3)Gal(b1-4)GlcNAc(b1-2)Man(a1-6)]GalNAc
# Procedure, shortened: as §1
# [17] = molecular target: Neu5Ac(a2-6)Gal(b1-4)GlcNAc(b1-3)Gal(b1-4)GlcNAc(b1-3)GalNAc
# Procedure, shortened: as §1
# [18] = molecular target: Neu5Ac(a2-6)Gal(b1-4)GlcNAc(b1-3)Gal(b1-4)GlcNAc(b1-3)[Neu5Ac(a2-6)Gal(b1-4)GlcNAc(b1-3)Gal(b1-4)GlcNAc(b1-6)]GalNAc
# Procedure, shortened: as §1
# [19] = molecular target: Neu5Ac(a2-6)Gal(b1-4)GlcNAc(b1-3)Gal(b1-4)GlcNAc(b1-6)[Gal(b1-3)]GalNAc
# Procedure, shortened: as §1
# [20] = molecular target: Neu5Ac(a2-6)Gal(b1-4)GlcNAc(b1-3)Gal(b1-4)[Fuc(a1-3)]GlcNAc(b1-3)Gal(b1-4)[Fuc(a1-3)]GlcNAc
# Procedure, shortened: as §1
# [21] = molecular target: Neu5Ac(a2-6)Gal(b1-4)GlcNAc(b1-3)GalNAc
# Procedure, shortened: as §1
# [22] = molecular target: Neu5Ac(a2-6)Gal(b1-4)GlcNAc(b1-3)[Neu5Ac(a2-6)Gal(b1-4)GlcNAc(b1-6)]GalNAc
# Procedure, shortened: as §1
# [23] = molecular target: Neu5Ac(a2-6)Gal(b1-4)GlcNAc(b1-6)GalNAc
# Procedure, shortened: as §1
# [24] = molecular target: Neu5Ac(a2-6)Gal(b1-4)GlcNAc(b1-6)[Gal(b1-3)GlcNAc(b1-3)]Gal(b1-4)Glc
# Procedure, shortened: as §1
# [25] = molecular target: Neu5Ac(a2-6)Gal(b1-4)GlcNAc(b1-6)[Gal(b1-3)]GalNAc
# Procedure, shortened: as §1
# [26] = molecular target: Neu5Ac(a2-6)Gal(b1-4)GlcNAc6S
# Procedure, shortened: as §1
# Neu5Ac(a2-6)GalNAc = molecular target: Neu5Ac(a2-6)GalNAc
# Procedure, shortened: as §1
# [27] = molecular target: Neu5Ac(a2-6)GalNAc(b1-4)GlcNAc
# Procedure, shortened: as §1
# [28] = molecular target: Neu5Ac(a2-6)GalNAc(b1-4)GlcNAc6S
# Procedure, shortened: as §1
# [29] = molecular target: Neu5Ac(a2-6)GlcNAc(b1-4)GlcNAc
# Procedure, shortened: as §1
binder,measurement,setting,value
"Protein L(A-C2) (Finegoldia magna), Q51912 (protein) ADEPIDLEKLEEKRDKENVGNLPKFDNEVKDGSENPMAKYPDFDDEASTRFETENNEFEEKKVVSDNFFDQSEHPFVENKEETPETPETDSEEEVTIKANLIFANGSTQTAEFKGTFEKATSEAYAYADTLKKDNGEYTVDVADKGYTLNIKFAGKEKTPEEPKEEVTIKANLIYADGKTQTAEFKGTFEEATAEAYRYADALKKDNGEYTVDVADKGYTLNIKFAGKEKTPEEPKEEVTIKANLIYADGKTQTAEFKGTFEEATAEAYRYADLLAKENGKYTVDVADKGYTLNIKFAGKEKTPEEPKEEVTIKANLIYADGKTQTAEFKGTFAEATAEAYRYADLLAKENGKYTADLEDGGYTINIRFAGKKVDEKPEEKEQVTIKENIYFEDGTVQTATFKGTFAEATAEAYRYADLLSKEHGKYTADLEDGGYTINIRFAGKEEPEETPEKPEVQDGYASYEEAEAAAKEALKNDDVNKSYTIRQGADGRYYYVLSPVEAEEEKPEAQNGYATYEEAEAAAKKALENDPINKSYSIRQGADGRYYYVLSPVEAE",glycan array binding signal (z-score),[1],-1.23
same,glycan array binding signal (z-score),[2],-0.24
same,glycan array binding signal (z-score),[3],-0.037
same,glycan array binding signal (z-score),[4],0.419
same,glycan array binding signal (z-score),[5],-0.51
same,glycan array binding signal (z-score),[6],-0.288
same,glycan array binding signal (z-score),[7],-0.74
same,glycan array binding signal (z-score),[8],0.298
same,glycan array binding signal (z-score),[9],0.198
same,glycan array binding signal (z-score),[10],-0.222
same,glycan array binding signal (z-score),[11],-0.594
same,glycan array binding signal (z-score),[12],-0.752
same,glycan array binding signal (z-score),[13],0.159
same,glycan array binding signal (z-score),[14],1.16
same,glycan array binding signal (z-score),[15],-0.292
same,glycan array binding signal (z-score),[16],1.97
same,glycan array binding signal (z-score),[17],-0.032
same,glycan array binding signal (z-score),[18],3.89
same,glycan array binding signal (z-score),[19],0.761
same,glycan array binding signal (z-score),[20],0.819
same,glycan array binding signal (z-score),[21],0.898
same,glycan array binding signal (z-score),[22],-0.107
same,glycan array binding signal (z-score),[23],1.66
same,glycan array binding signal (z-score),[24],-0.414
same,glycan array binding signal (z-score),[25],0.12
same,glycan array binding signal (z-score),[26],-0.725
same,glycan array binding signal (z-score),Neu5Ac(a2-6)GalNAc,-0.512
same,glycan array binding signal (z-score),[27],-0.287
same,glycan array binding signal (z-score),[28],-0.457
same,glycan array binding signal (z-score),[29],-0.694

# 2 entries from above, tab-delimited:
binder	measurement	setting	value
Protein L(A-C2) (Finegoldia magna), Q51912 (protein) ADEPIDLEKLEEKRDKENVGNLPKFDNEVKDGSENPMAKYPDFDDEASTRFETENNEFEEKKVVSDNFFDQSEHPFVENKEETPETPETDSEEEVTIKANLIFANGSTQTAEFKGTFEKATSEAYAYADTLKKDNGEYTVDVADKGYTLNIKFAGKEKTPEEPKEEVTIKANLIYADGKTQTAEFKGTFEEATAEAYRYADALKKDNGEYTVDVADKGYTLNIKFAGKEKTPEEPKEEVTIKANLIYADGKTQTAEFKGTFEEATAEAYRYADLLAKENGKYTVDVADKGYTLNIKFAGKEKTPEEPKEEVTIKANLIYADGKTQTAEFKGTFAEATAEAYRYADLLAKENGKYTADLEDGGYTINIRFAGKKVDEKPEEKEQVTIKENIYFEDGTVQTATFKGTFAEATAEAYRYADLLSKEHGKYTADLEDGGYTINIRFAGKEEPEETPEKPEVQDGYASYEEAEAAAKEALKNDDVNKSYTIRQGADGRYYYVLSPVEAEEEKPEAQNGYATYEEAEAAAKKALENDPINKSYSIRQGADGRYYYVLSPVEAE	glycan array binding signal (z-score)	[1]	-1.23
same	glycan array binding signal (z-score)	[2]	-0.24
